Data reported in article doi:10.1101/738179.
These are yes or no findings as the source states them, for the method shown. Some results given as binding are weak or reduced against the parent protein; the word gives no strength. Values belong to the binder of their own block, whether it stands above or below them.

Legend:
Rad51 (S. pombe) = Rad51 (S. pombe) (UniProt P36601); experiment: SEC
[1] = molecular target: T1, Sfr1N (residues 1-176 of Sfr1) (S. pombe) (UniProt Q9USV1); experiment: NMR titration
T1 sequence: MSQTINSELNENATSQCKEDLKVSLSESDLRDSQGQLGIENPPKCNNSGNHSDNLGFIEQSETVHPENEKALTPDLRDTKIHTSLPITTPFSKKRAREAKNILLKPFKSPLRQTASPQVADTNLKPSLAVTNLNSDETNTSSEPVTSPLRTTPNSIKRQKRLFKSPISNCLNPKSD

[2] = molecular target: T2, full-length Sfr1 (S. pombe) (UniProt Q9USV1); experiment: co-purification
T2 sequence: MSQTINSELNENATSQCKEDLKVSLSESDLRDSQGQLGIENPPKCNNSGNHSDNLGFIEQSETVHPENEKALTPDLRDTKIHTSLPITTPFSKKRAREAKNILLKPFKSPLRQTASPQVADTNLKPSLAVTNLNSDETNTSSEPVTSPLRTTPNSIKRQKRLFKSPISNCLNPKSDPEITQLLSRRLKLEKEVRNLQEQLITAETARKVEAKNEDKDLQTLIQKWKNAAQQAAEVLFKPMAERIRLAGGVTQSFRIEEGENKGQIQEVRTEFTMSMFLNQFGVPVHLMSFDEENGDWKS

binding (Rad51 (S. pombe)): binds
binding [1]: binds weakly
B1: Rad51 (protein, UniProt P36601 1-365)
chain: MADTEVEMQVSAADTNNNENGQAQSNYEYDVNVQDEEDEAAAGPMPLQMLEGNGITASDIKKIHEAGYYTVESIAYTPKRQLLLIKGISEAKADKLLGEASKLVPMGFTTATEYHIRRSELITITTGSKQLDTLLQGGVETGSITELFGEFRTGKSQICHTLAVTCQLPIDMGGGEGKCLYIDTEGTFRPVRLLAVADRYGLNGEEVLDNVAYARAYNADHQLELLQQAANMMSESRFSLLVVDSCTALYRTDFSGRGELSARQMHLARFMRTLQRLADEFGIAVVITNQVVAQVDGISFNPDPKKPIGGNILAHSSTTRLSLRKGRGEQRICKIYDSPCLPESEAIFAINSDGVGDPKEIIAPV

binding [2]: binds
B2: Swi5 (protein, UniProt Q9UUB7 1-85)
chain: MEKSQLESRVHLLEQQKEQLESSLQDALAKLKNRDAKQTVQKHIDLLHTYNEIRDIALGMIGKVAEHEKCTSVELFDRFGVNGSE
